Measurements published in PMC3879536.
These are yes or no findings as the source states them, for the method shown. In cells and extracts the contact can be indirect. Binding calls can cover weak binding; strength is not graded here. Where a sequence is shown, tags or fusion partners need not be part of it.

Biological target: T1, GFP-RCP (Rab coupling protein) (UniProt Q6WKZ4)
T1 sequence: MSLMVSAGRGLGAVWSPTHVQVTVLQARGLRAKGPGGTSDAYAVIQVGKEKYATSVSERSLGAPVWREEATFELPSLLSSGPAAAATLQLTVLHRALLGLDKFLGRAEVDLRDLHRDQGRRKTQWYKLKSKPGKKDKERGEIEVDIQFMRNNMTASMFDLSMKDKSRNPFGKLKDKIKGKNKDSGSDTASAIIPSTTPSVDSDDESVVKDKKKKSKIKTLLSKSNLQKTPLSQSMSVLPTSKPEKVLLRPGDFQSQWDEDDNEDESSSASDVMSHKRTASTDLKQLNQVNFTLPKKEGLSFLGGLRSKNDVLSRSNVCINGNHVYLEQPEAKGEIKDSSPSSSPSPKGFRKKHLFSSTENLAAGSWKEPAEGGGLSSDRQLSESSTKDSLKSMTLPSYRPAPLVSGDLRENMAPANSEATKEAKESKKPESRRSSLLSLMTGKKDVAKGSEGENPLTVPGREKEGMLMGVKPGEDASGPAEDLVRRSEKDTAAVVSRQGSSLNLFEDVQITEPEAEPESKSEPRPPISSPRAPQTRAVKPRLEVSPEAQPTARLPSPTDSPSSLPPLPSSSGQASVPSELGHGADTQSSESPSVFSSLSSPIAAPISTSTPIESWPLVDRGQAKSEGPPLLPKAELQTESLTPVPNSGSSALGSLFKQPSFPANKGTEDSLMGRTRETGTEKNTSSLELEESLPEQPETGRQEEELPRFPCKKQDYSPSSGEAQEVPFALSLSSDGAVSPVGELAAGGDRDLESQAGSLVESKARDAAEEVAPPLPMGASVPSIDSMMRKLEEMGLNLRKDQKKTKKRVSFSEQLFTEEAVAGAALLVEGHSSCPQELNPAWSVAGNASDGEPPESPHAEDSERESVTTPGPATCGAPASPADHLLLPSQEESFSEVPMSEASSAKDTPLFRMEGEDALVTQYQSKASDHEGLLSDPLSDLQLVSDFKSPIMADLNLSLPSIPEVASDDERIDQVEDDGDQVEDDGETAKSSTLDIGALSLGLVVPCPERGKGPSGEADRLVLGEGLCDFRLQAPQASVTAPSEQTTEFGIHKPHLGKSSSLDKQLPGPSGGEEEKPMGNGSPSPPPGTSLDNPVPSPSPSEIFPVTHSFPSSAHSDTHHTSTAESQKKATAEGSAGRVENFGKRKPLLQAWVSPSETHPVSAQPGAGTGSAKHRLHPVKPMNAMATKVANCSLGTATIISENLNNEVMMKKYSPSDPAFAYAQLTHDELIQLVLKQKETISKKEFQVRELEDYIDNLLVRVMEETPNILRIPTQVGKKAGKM
Test: co-IP; H1299 empty vector or mutant p53 273H cells transfected with control or Dicer siRNA and GFP-RCP or a GFP control; lysed in IP lysis buffer (200 mM NaCl, 75 mM Tris-HCl pH 7, 0.15% Tween 20, EDTA, EGTA); GFP-RCP immunoprecipitated with a GFP antibody (Roche) and magnetic protein G beads; Western blot for α5 integrin, GFP, Rab11

Substance	binding
α5 integrin (human (endogenous in H1299)) (receptor)	binds
Rab11 (human (endogenous in H1299))	binds
